Test [1] addresses T1, RGS-binding domain (RBD) of KIF20A, HA-tagged (mouse) (UniProt P97329).
T1 sequence: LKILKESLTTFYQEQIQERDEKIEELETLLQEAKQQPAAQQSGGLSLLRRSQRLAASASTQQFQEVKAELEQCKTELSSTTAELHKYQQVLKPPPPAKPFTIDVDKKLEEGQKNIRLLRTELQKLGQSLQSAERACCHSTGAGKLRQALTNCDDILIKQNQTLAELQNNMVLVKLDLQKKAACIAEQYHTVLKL
Nature of the test: co-IP; plasmids co-transfected into HEK293 cells; lysis buffer 10 mM Tris-HCl pH 7.5, 150 mM NaCl, 1% NP40, 1 mM EDTA, 1 mM DTT; Flag or Myc antibody 1 µg/ml, magnetic protein G beads; western blot. In general terms: Immunoblotting shows a protein as a band on a membrane.

Protein sequences, listed by entry. Tags and fused reporters are not part of them. Lines headed by an entry give the natural chain unless they say otherwise; changes in a name come on top.
UniProt Q9DC04: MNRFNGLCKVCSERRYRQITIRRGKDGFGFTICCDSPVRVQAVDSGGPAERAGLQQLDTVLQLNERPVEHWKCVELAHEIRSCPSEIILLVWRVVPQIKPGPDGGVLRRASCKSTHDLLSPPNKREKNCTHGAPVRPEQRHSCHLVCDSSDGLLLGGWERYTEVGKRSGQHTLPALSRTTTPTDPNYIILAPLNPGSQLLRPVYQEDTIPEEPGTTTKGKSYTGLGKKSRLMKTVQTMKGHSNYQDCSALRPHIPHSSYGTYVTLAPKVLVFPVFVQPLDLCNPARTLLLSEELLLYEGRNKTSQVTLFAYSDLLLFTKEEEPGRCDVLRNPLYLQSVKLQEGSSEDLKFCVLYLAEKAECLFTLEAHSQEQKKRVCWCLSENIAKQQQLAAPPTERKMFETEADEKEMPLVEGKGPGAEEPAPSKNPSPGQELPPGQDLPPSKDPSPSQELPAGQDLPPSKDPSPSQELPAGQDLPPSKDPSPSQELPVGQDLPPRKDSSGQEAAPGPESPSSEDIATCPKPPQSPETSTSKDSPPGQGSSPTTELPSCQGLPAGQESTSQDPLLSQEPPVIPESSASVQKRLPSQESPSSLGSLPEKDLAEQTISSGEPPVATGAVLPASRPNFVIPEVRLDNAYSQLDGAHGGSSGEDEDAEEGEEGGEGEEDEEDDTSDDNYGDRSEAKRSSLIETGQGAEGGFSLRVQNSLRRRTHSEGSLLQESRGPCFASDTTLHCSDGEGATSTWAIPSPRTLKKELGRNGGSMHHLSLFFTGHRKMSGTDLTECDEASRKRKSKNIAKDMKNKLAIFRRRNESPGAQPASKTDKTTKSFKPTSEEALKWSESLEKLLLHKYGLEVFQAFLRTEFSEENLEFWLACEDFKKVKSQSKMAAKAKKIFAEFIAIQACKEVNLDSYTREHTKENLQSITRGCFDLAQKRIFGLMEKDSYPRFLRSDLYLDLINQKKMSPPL

Test [2] concerns the target endogenous RGS3 of embryonic mouse brain (mouse (endogenous in E15.5 brain)) (UniProt Q9DC04). Nature of the test: co-IP; endogenous proteins; lysate of 14 pooled E15.5 mouse brains; 5 µg anti-RGS antibody or control IgG, magnetic protein G beads; western blot.
The target of test [3] is RGS domain of RGS3 alone (two-hybrid bait) (UniProt Q9DC04). The experiment in a line: two-hybrid; mouse E9.5/10.5 embryonic two-hybrid cDNA library screened with full-length PDZ-RGS3 and with the RGS domain alone as baits; 20 million yeast cells with each bait.
The target of test [4] is RGS domain of RGS3, GFP-tagged (UniProt Q9DC04). The experiment in a line: co-IP; plasmids co-transfected into HEK293 cells; lysis buffer 10 mM Tris-HCl pH 7.5, 150 mM NaCl, 1% NP40, 1 mM EDTA, 1 mM DTT; Flag or Myc antibody 1 µg/ml, magnetic protein G beads; western blot.

No constants are given. Whether binding was seen depends on the method and setting. For some of these results: Binding seen in cells or lysates may run through a third protein. Some entries that bind do so weakly or less than the wild type. For some of these results: Tags and fused reporters may be left off the sequences shown.

Regarding “RGS domain of RGS3, GFP-tagged (from UniProt Q9DC04 841-966) (domain or fragment)”, in test [1], the binding result was “binds”.

B1: endogenous KIF20A of embryonic mouse brain (protein, UniProt P97329 1-887)
chain: MSHRILSPPAGLLSDEDVVDSPILESTAADLRSVVRKDLLSDCSVISASLEDKQALLEDTSEKVKVYLRIRPFLTSELDRQEDQGCVCIENTETLVLQAPKDSFALKSNERGVGQATHKFTFSQIFGPEVGQVAFFNLTMKEMVKDVLKGQNWLIYTYGVTNSGKTYTIQGTSKDAGILPQSLALIFNSLQGQLHPTPDLKPLLSNEVIWLDSKQIRQEEMKKLSLLIGGLQEEELSTSVKKRVHTESRIGASNSFDSGVAGLSSTSQFTSSSQLDETSQLWAQPDTVPVSVPADIRFSVWISFFEIYNELLYDLLEPPSHQHKRQTLRLCEDQNGNPYVKDLNWIHVRDVEEAWKLLKVGRKNQSFASTHMNQQSSRSHSIFSIRILHLQGEGDIVPKISELSLCDLAGSERCKHQKSGERLKEAGNINTSLHTLGRCIAALRQNQQNRSKQNLIPFRDSKLTRVFQGFFTGRGRSCMIVNVNPCASTYDETLHAAKFSALASQLVHAPPVHLGIPSLHSFIKKHSPQVGPGLEKEDKADSDLEDSPEDEADVSVYGKEELLQVVEAMKALLLKERQEKLQLEIQLREEICNEMVEQMQQREQWCSERLDNQKELMEELYEEKLKILKESLTTFYQEQIQERDEKIEELETLLQEAKQQPAAQQSGGLSLLRRSQRLAASASTQQFQEVKAELEQCKTELSSTTAELHKYQQVLKPPPPAKPFTIDVDKKLEEGQKNIRLLRTELQKLGQSLQSAERACCHSTGAGKLRQALTNCDDILIKQNQTLAELQNNMVLVKLDLQKKAACIAEQYHTVLKLQGQASAKKRLGANQENQQPNHQPPGKKPFLRNLLPRTPTCQSSTDSSPYARILRSRHSPLLKSPFGKKY
With B1, the binding result in test [2] is on record as “binds”.

B2: KIF20A fragment, amino acids 625 to 818 (two-hybrid prey) (domain or fragment, UniProt P97329 625-818)
chain: LKILKESLTTFYQEQIQERDEKIEELETLLQEAKQQPAAQQSGGLSLLRRSQRLAASASTQQFQEVKAELEQCKTELSSTTAELHKYQQVLKPPPPAKPFTIDVDKKLEEGQKNIRLLRTELQKLGQSLQSAERACCHSTGAGKLRQALTNCDDILIKQNQTLAELQNNMVLVKLDLQKKAACIAEQYHTVLKL
In the case of B2, the binding entry in test [3] is “binds”.

B3: RGS-binding domain (RBD) of KIF20A, HA-tagged (domain or fragment, UniProt P97329 625-818)
chain: LKILKESLTTFYQEQIQERDEKIEELETLLQEAKQQPAAQQSGGLSLLRRSQRLAASASTQQFQEVKAELEQCKTELSSTTAELHKYQQVLKPPPPAKPFTIDVDKKLEEGQKNIRLLRTELQKLGQSLQSAERACCHSTGAGKLRQALTNCDDILIKQNQTLAELQNNMVLVKLDLQKKAACIAEQYHTVLKL
Take B3: in test [4], the binding result is on record as “binds”.
